# From PubChem BioAssay AID2685 (National Center for Advancing Translational Sciences (NCATS), 2010)
# The other results are listed elsewhere or left out. The main result of the screen is listed elsewhere. These columns were measured beside it and carry no call. Most of these compounds were active or inconclusive in the main read-out, so they are no random draw. The note in brackets gives the kind of curve behind each potency; many fits are weak.
# Test: qHTS Assay for Lipid Storage Modulators in Drosophila S3 Cells;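 as to cell number change: cells counted by Cell Tracker Red CMTPX staining in the red channel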
# Settings: BODIPY lipid droplet fluorescence, 18-24 h; for cell number change: measured here: cell count max response, cells fed with added oleic acid
# In short: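 Laser-scanning cytometry quantifies lipid droplet accumulation (500–530 nm total intensity; droplet/cell object ratio) in oleic acid-fed (400 uM added) Drosophila S3 cells treated with a concentration series. 20 uM Triacsin C defined 100% inhibition.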
# [1] = measured here: lipid fluorescence (Fed channel) AC50, cells fed with added oleic acid
# [2] = measured here: cell number channel AC50, cells fed with added oleic acid
structure (smiles),measurement,setting,value
C/C(=N\O)C(=O)NCc1ccncc1,cell number change,,0.284%
same,AC50,[1],"0.103 µM [falling, full curve, poor fit]"
CN1CCc2c(OCC(=O)NC3CCCCC3)cccc2C1=O,cell number change,,-4.74%
same,AC50,[2],"6.51 µM [rising, single point]"
O=C1[C@@H]2Cc3c([nH]c4ccccc34)C(c3cccc(Br)c3)N2C(=O)CN1C1CCN(Cc2ccccc2)CC1 (some centres not stated),cell number change,,-41.9%
same,AC50,[2],"20.6 µM [falling, single point]"
same,AC50,[1],"29.1 µM [falling, partial curve, poor fit]"
Cc1ccc(S(=O)(=O)NCCC(=O)Nc2ncccc2O)cc1C,cell number change,,24.5%
COc1ccc(CN2CCN(C(=O)Cn3nc(C)n4cccc4c3=O)CC2)c(OC)c1OC,cell number change,,-13.9%
same,AC50,[1],"6.51 µM [rising, single point]"
CC(=O)c1cccc(NC(=O)C2CCN(C(=O)c3cccs3)CC2)c1,cell number change,,-2.56%
O=C(Cc1sc(Nc2ccccc2)nc1-c1ccccc1)NCc1ccccc1,cell number change,,-2.88%
same,AC50,[1],"0.0366 µM [rising, full curve, poor fit]"
CN(c1ccccc1)S(=O)(=O)c1ccc(C(=O)Nc2nnc(C3CC3)s2)cc1,cell number change,,-3.7%
same,AC50,[1],"0.146 µM [falling, full curve, poor fit]"
CSc1nc(-c2ccccc2)nc(N2CCN(C)CC2)c1C(C)=O,cell number change,,-15.7%
same,AC50,[1],"0.259 µM [rising, full curve]"
CC(=O)N[C@@H](Cc1c[nH]c2ccccc12)C(=O)OCC(=O)Nc1ccc(Cl)c(S(=O)(=O)N(C)C)c1,cell number change,,16.5%
same,AC50,[1],"29.1 µM [rising, single point]"
CN1CCN(S(=O)(=O)c2ccc(C(F)(F)F)cc2)C(c2ccccc2)C1 (configuration not stated),cell number change,,2.75%
same,AC50,[1],"0.731 µM [rising, single point]"
CCOC(=O)C1=C(C)NC2=C(C(=O)C(C(=O)OCC)C(c3ccc(OC)cc3)C2)C1c1ccccn1 (configuration not stated),cell number change,,-32.4%
same,AC50,[2],"32.6 µM [falling, single point]"
same,AC50,[1],"1.16 µM [falling, partial curve]"
CCn1c(=O)n(CC)c2cc(S(=O)(=O)Nc3cc(C)cc(C)c3C#N)ccc21,cell number change,,-2.16%
same,AC50,[2],"1.84 µM [rising, partial curve]"
CCC(/C=C1\Sc2ccc(OC)cc2N1CC)=C\c1sc2ccc(OC)cc2[n+]1CCCS(=O)(=O)[O-],cell number change,,-61.7%
same,AC50,[2],"18.4 µM [falling, single point]"
same,AC50,[1],"18.4 µM [falling, single point]"
COc1ccc([N+](=O)[O-])cc1C(=O)Nc1ccc(OCC(=O)N2CCOCC2)cc1,AC50,[2],"3.66 µM [rising, single point]"
same,AC50,[1],"5.17 µM [rising, partial curve]"
Cc1ccc(Cl)cc1NC(=O)c1ocnc1C,cell number change,,4.13%
same,AC50,[1],"7.31 µM [falling, single point]"
CCCNC(=O)c1ccc(Cl)c(Cl)c1,cell number change,,-18.2%
same,AC50,[1],"32.6 µM [falling, single point]"
COc1ccc(/C=C2\SC(=O)N(CCC(=O)NC3CCS(=O)(=O)C3)C2=O)cc1 (configuration not stated),cell number change,,2.83%
CC(C)CCNS(=O)(=O)c1ccc(-c2ccc(S(=O)(=O)NCCC(C)C)cc2)cc1,cell number change,,-28.7%
same,AC50,[1],"16.4 µM [falling, partial curve]"
Cc1cccc(-n2ncc3c2CCCC3NC(=O)C2CCOCC2)c1C (configuration not stated),cell number change,,-17.3%
O=C(OCC(=O)N(c1ccccc1)C1CCCCC1)c1ccc(CO)cc1,cell number change,,8.08%
same,AC50,[1],"1.3 µM [rising, partial curve]"
CCn1c(C)c(C2=CCN(S(=O)(=O)c3ccccc3)CC2)c2ccccc21,AC50,[1],"29.1 µM [rising, single point]"
CCCCC(=O)Nc1c2c(nn1-c1ccc(C)cc1)CS(=O)(=O)C2,cell number change,,24.5%
same,AC50,[1],"11.6 µM [rising, single point]"
CCOC(=O)c1cc(Sc2ccccc2N)cc(C(=O)OCC)n1,cell number change,,-34.8%
same,AC50,[2],"29.1 µM [falling, single point]"
COc1ccc(/C=C/C(=O)c2c(O)ccc3c(C)cc(=O)oc23)cc1,cell number change,,-8.15%
same,AC50,[1],"16.4 µM [falling, single point]"
O=P(Cc1ccncc1)(c1ccccc1)c1ccccc1,cell number change,,30.1%
same,AC50,[2],"8.2 µM [rising, partial curve]"
Cc1ccc(C)c(NC(=O)c2cc(S(=O)(=O)N3CCCCC3)c[nH]2)c1,cell number change,,11.7%
same,AC50,[1],"0.082 µM [falling, full curve, poor fit]"
Cn1c(=O)c2c(ncn2CCOc2ccc(Br)cc2)n(C)c1=O,cell number change,,-38.9%
same,AC50,[2],"0.291 µM [falling, full curve, poor fit]"
O=C(c1ccccc1)N(Cc1ccccc1)c1ccccn1,cell number change,,1.64%
CCN1CCN(CC(=O)c2ccc(OC)cc2)CC1,cell number change,,-40.7%
same,AC50,[1],"0.0206 µM [falling, full curve, poor fit]"
COC(=O)c1ccccc1NC(=O)c1ccccc1N(C)S(C)(=O)=O,AC50,[2],"3.26 µM [rising, single point]"
same,AC50,[1],"2.91 µM [rising, partial curve]"
COc1cccc(-n2nnnc2SCC(=O)c2ccc(NC(C)=O)cc2)c1,cell number change,,55.4%
same,AC50,[2],"10.3 µM [rising, partial curve]"
same,AC50,[1],"0.58 µM [rising, partial curve]"
COC(=O)c1c(-c2ccc(C)cc2)csc1NC(=O)Cc1ccc(OC)c(OC)c1,cell number change,,28.1%
same,AC50,[2],"0.58 µM [rising, full curve, poor fit]"
same,AC50,[1],"2.31 µM [rising, partial curve]"
Cc1ccc(S(=O)(=O)CCC(=O)OCC(=O)NCC(=O)Nc2c(C)cc(C)cc2C)cc1,cell number change,,43.5%
same,AC50,[2],"32.6 µM [rising, partial curve, poor fit]"
NS(=O)(=O)c1ccc(CNC(=O)c2cc(-c3cccnc3)nc3ccc(Cl)cc23)cc1,cell number change,,48.4%
same,AC50,[2],"1.84 µM [rising, partial curve, poor fit]"
CNc1ccc(C(=O)OCC(=O)NCc2ccc3c(c2)OCO3)cc1[N+](=O)[O-],cell number change,,43.8%
same,AC50,[2],"20.6 µM [rising, single point]"
same,AC50,[1],"0.146 µM [rising, full curve, poor fit]"

# Four entries from above in another layout.
structure (smiles) | measurement | setting | value
CN1CCc2c(OCC(=O)NC3CCCCC3)cccc2C1=O | cell number change |  | -4.74%
CSc1nc(-c2ccccc2)nc(N2CCN(C)CC2)c1C(C)=O | cell number change |  | -15.7%
COc1ccc([N+](=O)[O-])cc1C(=O)Nc1ccc(OCC(=O)N2CCOCC2)cc1 | AC50 | [2] | 3.66 µM [rising, single point]
CNc1ccc(C(=O)OCC(=O)NCc2ccc3c(c2)OCO3)cc1[N+](=O)[O-] | cell number change |  | 43.8%
